Data reported in the supplement of paper PMC7824004.
The other results are listed elsewhere or left out. The data scatter; read single values as rough.

System: Candida albicans SN425
Test: biofilm OD600 B-score; higher = more biofilm (less inhibition)
Conditions: 10 µM; assay detail: High-throughput adherence inhibition optical density biofilm assay with C. albicans SN425 in RPMI-1640/MOPS pH 7.0, 384-well plates. …
Method: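 High-throughput adherence inhibition optical density biofilm assay with C. albicans SN425 in RPMI-1640/MOPS pH 7.0, 384-well plates. Compound (10 µM) was present only during the 90 min adherence step, then washed out, and the biofilm grew 24 h without compound. Biofilm was read as OD600 after removing the media. Scores are the difference from the mean in standard deviations and the plate B-score.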

Row | SMILES | biofilm OD600 B-score
1 | CCc1ccccc1NC(=O)C1CCN(C(=O)c2cccc(Cl)c2)CC1 | 0.533
2 | NC(=O)c1ccccc1NC(=O)CC1CCCCC1 | 0.167
3 | O=C(Nc1cccnc1)C1CCCCC1 | -1.6
4 | CCN(CC)S(=O)(=O)c1cc(Cl)c(OC)cc1Cl | -0.547
5 | Nc1ccccc1C(=O)NCCOc1ccccc1 | -1.58
6 | Cc1ccc(NC(=O)c2cc(N)ccc2N2CCOCC2)cc1 | -1.36
7 | CN1CCC(N(C)Cc2cccs2)CC1 | 0.0175
8 | COCCNC(=O)Cc1ccccc1OC | 0.049
9 | Cc1onc(-c2ccccc2)c1C(=O)N1CCCCCC1 | -0.484
10 | COc1ccc(Cl)cc1C(=O)N1CCCCCC1 | 1.93
11 | O=C(O)C1CCCCC1C(=O)N1CCCC1 (stereo not given) | 1.54
12 | CC(=O)N1CCc2ccccc2C1CN1C(=O)c2ccccc2C1=O (stereo not given) | 1.33
13 | CCOc1ccc(OCCCn2cnc3ccccc3c2=O)cc1 | 2.37
14 | CCOc1ccccc1C(=O)NC(C)COC (stereo not given) | 0.426
15 | CCN(CC)C(=O)CSc1nc(O)cc(=O)n1-c1ccccc1C | -0.0463
16 | COCC(=O)Nc1cc(OC)cc(OC)c1 | 0.376
17 | COc1cc(C(=O)N2CCCCC2)cc(OC)c1OC | 0.107
18 | CN(C)CCOc1ccccc1C(C)(C)C | 0.893
19 | CC(C)c1ccc(C(=O)Nc2ccccc2C(N)=O)cc1 | 1.59
20 | CN(C)CC(C)(C)CNC1CC2CCC1C2 (stereo not given) | 0.602

Row | SMILES | biofilm OD600 B-score
21 | CC(C)(C)c1ccc(S(=O)(=O)CCc2ccccn2)cc1 | 1
22 | COc1ccccc1/C=C/CN1CCN(c2ccccn2)CC1 | 0.16
23 | CCSc1nnc(NC(=O)NC2CCCCC2)s1 | 0.126
24 | Cc1nnc(NS(=O)(=O)Cc2ccccc2)s1 | 1.32
25 | COc1ccc(OCC(O)CN2CCc3ccccc3C2)cc1 (stereo not given) | 1.99
26 | C/C(=C\c1ccccc1)CN1CCC(C(=O)N2CCCCC2)CC1 | 2.62
27 | O=C(CCN1CCCC1)NCC1COc2ccccc2O1 (stereo not given) | 2.4
28 | COc1ccc(COCC(O)CN2CCCCC2)cc1OC (stereo not given) | -0.249
29 | Cc1cccc(C)c1NC(=O)C1CCCCC1C(=O)O (stereo not given) | -0.188
30 | COc1cc(NC(=O)c2ccc(C)o2)c(OC)cc1Cl | 1.49
31 | O=C(c1ccco1)N1CCN(C(=O)N(c2ccccc2)c2ccccc2)CC1 | -0.499
32 | Cc1cc(C)nc(NC(=O)CCCc2ccccc2)n1 | 1.41
33 | COc1ccccc1NC(=O)Nc1ccccc1 | 0.45
34 | NS(=O)(=O)c1ccc(NS(=O)(=O)/C=C/c2ccccc2)cc1 | 2.76
35 | NC(=O)C1CCN(Cc2ccc(Cl)cc2)CC1 | -1.46
36 | CCC(=O)Nc1cccc(NC(=O)c2cccnc2)c1 | 0.851
37 | Cc1cccc(C(=O)NCc2cccnc2)c1 | 1.61
38 | O=[N+]([O-])c1ccc(N2CCCC2)c(OCCO)c1 | -0.00328
39 | O=C(O)C1CCCCC1C(=O)NCc1ccncc1 (stereo not given) | -1.55
40 | Clc1ccc(OCCn2ccnc2)c(Br)c1 | 1.27

Structural class, the entries above containing a tert-butyl group.
Row | SMILES | biofilm OD600 B-score
18 | CN(C)CCOc1ccccc1C(C)(C)C | 0.893
21 | CC(C)(C)c1ccc(S(=O)(=O)CCc2ccccn2)cc1 | 1
